Results: PubChem BioAssay AID248 (DTP/NCI, 2004)
The list does not hold the whole screen: it is rich in T/C values a quarter to a half above the control, in often repeated tests (any T/C) and in doses without a T/C. Further doses and runs are listed elsewhere. T/C is the treated group as % of the vehicle group. Some doses have a count of surviving animals in place of a T/C: the source files T/C as zero there, which appears to mark a toxic dose or a test without result, not a measured value. Some survivor counts are full or nearly so, which does not show that the dose was tolerated: the source hardly ever lists a survival T/C far under the control, and the zero likely stands for such cases as well. Survivors were counted at the toxicity check, usually on the fifth day, unless a day is given; later deaths do not show. Schedule codes are those of the source, read here as Q, the interval in days (D) or hours (H), X, the number of doses. Some schedule codes hold Z or #, which are not explained here. Where survival is the endpoint, the PubChem record calls one and a half times the control and up active, and a quarter to a half above the control has no call in these data; cut-offs in other NCI protocols can differ.

Test system: L1210 leukemia ip in BDF1 mice, survival T/C
Assay: NCI In Vivo Anticancer Drug Screen. Data for tumor model L1210 Leukemia (intraperitoneal) in B6D2F1 (BDF1) mice
Settings: T/C endpoint: mean survival time, higher T/C = longer survival
[1] = dose: 400.0 mg/kg/injection, schedule: Q04DX002 (ip), vehicle: Klucel (hydroxypropylcellulose) (HPC)
[2] = dose: 200.0 mg/kg/injection, schedule: Q04DX003 (ip), vehicle: saline with Tween-80
[3] = dose: 400.0 mg/kg/injection, schedule: Q04DX003 (ip), vehicle: saline with Tween-80
[4] = dose: 100.0 mg/kg/injection, schedule: Q01DX001 (ip), vehicle: saline
[5] = dose: 200.0 mg/kg/injection, schedule: Q01DX001 (ip), vehicle: saline
[6] = dose: 400.0 mg/kg/injection, schedule: Q01DX001 (ip), vehicle: saline
[7] = dose: 400.0 mg/kg/injection, schedule: Q01DX009 (ip), vehicle: Klucel (hydroxypropylcellulose) (HPC)
[8] = dose: 400.0 mg/kg/injection, schedule: Q04DX003 (ip), vehicle: saline
[9] = dose: 200.0 mg/kg/injection, schedule: Q04DX002 (ip), vehicle: Klucel (hydroxypropylcellulose) (HPC)
[10] = dose: 400.0 mg/kg/injection, schedule: Q04DX002 (ip), vehicle: saline with Tween-80
[11] = dose: 400.0 mg/kg/injection, schedule: Q04DX002 (ip), vehicle: saline
[12] = dose: 400.0 mg/kg/injection, schedule: Q01DX009 (ip), vehicle: saline
[13] = dose: 100.0 mg/kg/injection, schedule: Q04DX003 (ip), vehicle: saline with Tween-80

`CCCCCCCCCCCCCCCCCCNC(=O)Nc1cccc2ccccc12` was tested, and the survivor count (dose: 100.0 mg/kg/injection, schedule: Q01DX009 (ip), vehicle: carboxymethylcellulose (CMC)) was 5 of 6, the survivor count (dose: 100.0 mg/kg/injection, schedule: Q04DX002 (ip), vehicle: carboxymethylcellulose (CMC)) was 6 of 6 and the survivor count (dose: 200.0 mg/kg/injection, schedule: Q01DX009 (ip), vehicle: carboxymethylcellulose (CMC)) was 3 of 3. The survivor count [1] was 1 of 3.

In the case of `CC[C@@H]1C[C@H]2CC3c4[nH]c5ccc(OC)cc5c4CCN(C2)C31`, the survivor count (dose: 200.0 mg/kg/injection, schedule: Q01DX001 (ip), vehicle: saline with Tween-80) is reported as 1 of 3 and the survivor count (dose: 400.0 mg/kg/injection, schedule: Q01DX001 (ip), vehicle: saline with Tween-80) is reported as 0 of 3.

With `O=C(O)/C=C/C(=O)Nc1cccc2c1C(=O)c1ccccc1-2` the survivor count [2] was 6 of 6 and the survivor count [3] was 0 of 6.

In the case of `CC1(C)CCN1Cc1ccccc1`, the survivor count [4] is reported as 2 of 6, the survivor count [5] is reported as 0 of 6 and the survivor count [6] is reported as 0 of 6.

With `O=C1CC(N2CC2)C(=O)N1c1ccccc1` (stereo not drawn) the survivor count [7] was 0 of 6.

With `C/C(Cc1ccccc1)=N\[N+](C)(C)C` the survivor count (dose: 300.0 mg/kg/injection, schedule: Q01DX009 (ip), vehicle: saline) was 0 of 6 and the survivor count [8] was 0 of 6.

`CC(=O)NC(N)=S` was tested, and the survivor count (dose: 200.0 mg/kg/injection, schedule: Q04DX003 (ip), vehicle: Klucel (hydroxypropylcellulose) (HPC)) was 3 of 6.

In the case of `O=C(/C=C/c1ccccc1)N/N=C/c1ccccc1Cl`, the T/C [9] is reported as 126 % of control.

With `CC1=C(Br)C(=O)C(C)=C(Br)C1=O` the survivor count (dose: 100.0 mg/kg/injection, schedule: Q04DX003 (ip), vehicle: other) was 5 of 6, the survivor count (dose: 200.0 mg/kg/injection, schedule: Q04DX003 (ip), vehicle: other) was 3 of 6 and the survivor count (dose: 400.0 mg/kg/injection, schedule: Q04DX003 (ip), vehicle: other) was 2 of 6.

`O=C(NCCc1ccccc1)C1CCN(CCc2ccccc2)CC1` was tested, and the survivor count (dose: 200.0 mg/kg/injection, schedule: Q01DX001 (ip), vehicle: other) was 1 of 4 and the survivor count (dose: 400.0 mg/kg/injection, schedule: Q01DX001 (ip), vehicle: other) was 0 of 4.

In the case of `CC(C)CC(C=O)(CCN1CCCCC1)c1cccc2ccccc12` (stereo not drawn), the survivor count [10] is reported as 0 of 3 and the survivor count [11] is reported as 0 of 3.

`CN(C)CCCN1c2ccc(O)cc2Sc2ccc(Cl)cc21` was tested, and the survivor count (dose: 50.0 mg/kg/injection, schedule: Q01DX009 (ip), vehicle: other) was 5 of 10, the survivor count (dose: 100.0 mg/kg/injection, schedule: Q01DX009 (ip), vehicle: other) was 0 of 10 and the survivor count [2] was 6 of 6.

For `OCC(O)CCBr` (stereo not drawn), the T/C [12] was 130 % of control.

`COCCCNS(=O)(=O)c1ncnc2nc[nH]c12` was tested, and the T/C (dose: 200.0 mg/kg/injection, schedule: Q01DX Z (ip), vehicle: carboxymethylcellulose (CMC)) was 127 % of control, the survivor count (dose: 250.0 mg/kg/injection, schedule: Q01DX Z (ip), vehicle: carboxymethylcellulose (CMC)) was 0 of 6 and the T/C (dose: 300.0 mg/kg/injection, schedule: Q01DX Z (ip), vehicle: carboxymethylcellulose (CMC)) was 142 % of control. The survivor count (dose: 450.0 mg/kg/injection, schedule: Q01DX Z (ip), vehicle: carboxymethylcellulose (CMC)) was 2 of 6, the survivor count (dose: 500.0 mg/kg/injection, schedule: Q01DX Z (ip), vehicle: carboxymethylcellulose (CMC)) was 0 of 6 and the survivor count (dose: 1000.0 mg/kg/injection, schedule: Q01DX Z (ip), vehicle: carboxymethylcellulose (CMC)) was 0 of 6.

With `COc1ccc2nc3cc(Cl)ccc3c(NCCCCCN3CCCCC3)c2c1` the survivor count [4] was 2 of 4 and the survivor count [6] was 0 of 4.

In the case of `CC(=O)N1CCC(CC2CCCCC2)CC1`, the survivor count (dose: 100.0 mg/kg/injection, schedule: Q04DX003 (ip), vehicle: saline) is reported as 6 of 6, the survivor count (dose: 200.0 mg/kg/injection, schedule: Q04DX003 (ip), vehicle: saline) is reported as 1 of 6 and the survivor count [8] is reported as 0 of 6.

In the case of `CCOc1c(CNC(=O)CCl)cc(N)cc1CNC(=O)CCl`, the survivor count [5] is reported as 1 of 4 and the survivor count [6] is reported as 0 of 4.

`Nc1nc2c(ncn2-c2cccc(-c3ccccc3)c2)c(=O)[nH]1` was tested, and the survivor count [13] was 6 of 6 and the survivor count [3] was 6 of 6.

`COC1OC(CO)C2OC12` (stereo not drawn) was tested, and the survivor count [4] was 2 of 4 and the survivor count [6] was 2 of 4.

`Oc1ccc(C=NCCN=Cc2ccc(O)cc2O)c(O)c1` was tested, and the survivor count (dose: 18.0 mg/kg/injection, schedule: Q01DX009 (ip), vehicle: saline with Tween-80) was 6 of 6.

With `FC1(F)SC2C3CCC(C3)C2C1(F)F` (stereo not drawn) the survivor count (dose: 100.0 mg/kg/injection, schedule: Q04DX002 (ip), vehicle: saline with Tween-80) was 0 of 3, the survivor count (dose: 200.0 mg/kg/injection, schedule: Q04DX002 (ip), vehicle: saline with Tween-80) was 0 of 3 and the survivor count [10] was 0 of 3.

For `CN(C)c1ncc(C(N)=O)cn1`, the survivor count [7] was 1 of 6.

`CCCCCCCCCCC(S(=O)(=O)CC)S(=O)(=O)CC` was tested, and the survivor count (dose: 400.0 mg/kg/injection, schedule: Q01DX001 (ip), vehicle: Klucel (hydroxypropylcellulose) (HPC)) was 6 of 6.

For `CC(=O)Nc1ccc(NC(=O)Nc2cc(C)ccc2C)cc1`, the survivor count [13] was 6 of 6 and the survivor count [2] was 6 of 6.

In the case of `Cn1c2c(sc1=O)CCC2`, the T/C (dose: 100.0 mg/kg/injection, schedule: Q01DX Z (ip), vehicle: methylcellulose (MC)) is reported as 127 % of control and the survivor count (dose: 400.0 mg/kg/injection, schedule: Q04DX003 (ip), vehicle: Klucel (hydroxypropylcellulose) (HPC)) is reported as 2 of 6.

With `C/C(=N/N(C)C)c1ccc(C)cc1` the survivor count (dose: 200.0 mg/kg/injection, schedule: Q01DX009 (ip), vehicle: saline) was 3 of 6 and the survivor count [12] was 0 of 6.

`NC(CSCC(N)=NCC1C2CC3CC(C2)CC1C3)=NCC1C2CC3CC(C2)CC1C3` (stereo not drawn) was tested, and the survivor count [9] was 1 of 3 and the survivor count [1] was 1 of 3.

With `O=C(O)c1ccc(NCc2cccc([N+](=O)[O-])c2)cc1` the survivor count (dose: 100.0 mg/kg/injection, schedule: Q01DX009 (ip), vehicle: Klucel (hydroxypropylcellulose) (HPC)) was 3 of 3.

In the case of `N#CC(Cc1ccccc1)C(=O)O` (stereo not drawn), the survivor count (dose: 400.0 mg/kg/injection, schedule: Q01DX Z (ip), vehicle: saline) is reported as 3 of 6.

`CC[N+](C)(C)CCCNC(=O)C12CC3CC(CC(C3)C1)C2` was tested, and the survivor count (dose: 100.0 mg/kg/injection, schedule: Q04DX002 (ip), vehicle: saline) was 0 of 3, the survivor count (dose: 200.0 mg/kg/injection, schedule: Q04DX002 (ip), vehicle: saline) was 0 of 3 and the survivor count [11] was 0 of 3.
